No constants are given. Whether binding was seen depends on the method and setting. Binding seen in cells or lysates may run through a third protein. Where a sequence is shown, tags or fusion partners need not be part of it.
Target: T1, GFP-ATG8a (UniProt Q8LEM4)
T1 sequence: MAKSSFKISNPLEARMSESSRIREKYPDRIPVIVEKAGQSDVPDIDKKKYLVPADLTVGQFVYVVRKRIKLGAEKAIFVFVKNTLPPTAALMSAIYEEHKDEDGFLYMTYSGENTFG
Test: co-IP

With MELFALLIKVAGLLATVTVGANVVSYSRFRR (domain or fragment, UniProt Q93Y07 1-31) [SNT-BFP] as the binder, how does the binding read?
The binding was “no binding”.

— publication doi:10.1101/2025.02.21.639444
